Results deposited as PubChem BioAssay AID743121 (NCATS, 2013)

- Assay: 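Partners whose loss is lethal together with topoisomerase I blockade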 (primary screen)
- Cells: MDA-MB-231 cells, a human breast cancer line
- Reagents: single siRNA against human genes, 20 nM siRNA (0.8 pmol per well)
- Timing: 120 h (drug added 48 h after transfection, read 72 h later)
- Treatment: camptothecin 20 nM (about EC30) for 72 h; vehicle 0.1% DMSO in parallel plates
- Read-out: 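CellTiter-Glo ATP signal, scaled to control siRNA as percent viability; sensitisation given as log2 of untreated divided by camptothecin-treated viability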
- Reading the numbers: log2 vehicle/camptothecin viability: higher = stronger sensitisation to camptothecin; viability with camptothecin: higher = more viable cells
- Hit rule: 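Active genes have an RSA gene-level p-value below 0.001, computed from the ratios of their separate siRNAs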
The whole screen tested about 26,000 reagents; this is a random part of them. In the full data, 167 (0.63%) were called active. 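Calls are per gene from RSA p-values that are not deposited; an individual active-marked siRNA can sensitise only weakly.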 The numbers tell different reagents against one gene apart. Further read-outs or replicates are left out here.

{"gene knocked down": "PDE4B", "siRNA no.": 1, "log2 vehicle/camptothecin viability": -0.0782, "viability with camptothecin (% of control)": 14.9, "Call": "inactive"}
{"gene knocked down": "PDE4B", "siRNA no.": 2, "log2 vehicle/camptothecin viability": -0.23, "viability with camptothecin (% of control)": 76, "Call": "inactive"}
{"gene knocked down": "PDE4B", "siRNA no.": 3, "log2 vehicle/camptothecin viability": -0.149, "viability with camptothecin (% of control)": 105, "Call": "inactive"}
{"gene knocked down": "PDE4B", "siRNA no.": 4, "log2 vehicle/camptothecin viability": -0.604, "viability with camptothecin (% of control)": 98.8, "Call": "inactive"}
{"gene knocked down": "TIAM1", "siRNA no.": 1, "log2 vehicle/camptothecin viability": -0.849, "viability with camptothecin (% of control)": 38.2, "Call": "inactive"}
{"gene knocked down": "TIAM1", "siRNA no.": 2, "log2 vehicle/camptothecin viability": -0.158, "viability with camptothecin (% of control)": 61.4, "Call": "inactive"}
{"gene knocked down": "TIAM1", "siRNA no.": 3, "log2 vehicle/camptothecin viability": -0.261, "viability with camptothecin (% of control)": 87.9, "Call": "inactive"}
{"gene knocked down": "TIAM1", "siRNA no.": 4, "log2 vehicle/camptothecin viability": -0.381, "viability with camptothecin (% of control)": 42.8, "Call": "inactive"}
{"gene knocked down": "GCDH", "siRNA no.": 1, "log2 vehicle/camptothecin viability": 0.0733, "viability with camptothecin (% of control)": 67.7, "Call": "inactive"}
{"gene knocked down": "GCDH", "siRNA no.": 2, "log2 vehicle/camptothecin viability": 0.0918, "viability with camptothecin (% of control)": 42.1, "Call": "inactive"}
{"gene knocked down": "GCDH", "siRNA no.": 3, "log2 vehicle/camptothecin viability": -0.547, "viability with camptothecin (% of control)": 72.7, "Call": "inactive"}
{"gene knocked down": "GCDH", "siRNA no.": 4, "log2 vehicle/camptothecin viability": -0.412, "viability with camptothecin (% of control)": 82.2, "Call": "inactive"}
{"gene knocked down": "RAD51B", "siRNA no.": 1, "log2 vehicle/camptothecin viability": 0.387, "viability with camptothecin (% of control)": 67.8, "Call": "inactive"}
{"gene knocked down": "RAD51B", "siRNA no.": 2, "log2 vehicle/camptothecin viability": -0.129, "viability with camptothecin (% of control)": 88.5, "Call": "inactive"}
{"gene knocked down": "RAD51B", "siRNA no.": 3, "log2 vehicle/camptothecin viability": -0.137, "viability with camptothecin (% of control)": 44.4, "Call": "inactive"}
{"gene knocked down": "RAD51B", "siRNA no.": 4, "log2 vehicle/camptothecin viability": -0.412, "viability with camptothecin (% of control)": 84.7, "Call": "inactive"}
{"gene knocked down": "DGKG", "siRNA no.": 1, "log2 vehicle/camptothecin viability": -0.249, "viability with camptothecin (% of control)": 102, "Call": "inactive"}
{"gene knocked down": "DGKG", "siRNA no.": 2, "log2 vehicle/camptothecin viability": -0.189, "viability with camptothecin (% of control)": 90.3, "Call": "inactive"}
{"gene knocked down": "DGKG", "siRNA no.": 3, "log2 vehicle/camptothecin viability": -0.176, "viability with camptothecin (% of control)": 112, "Call": "inactive"}
{"gene knocked down": "DGKG", "siRNA no.": 4, "log2 vehicle/camptothecin viability": -0.172, "viability with camptothecin (% of control)": 85.3, "Call": "inactive"}
{"gene knocked down": "RFPL4A", "siRNA no.": 1, "log2 vehicle/camptothecin viability": -0.0872, "viability with camptothecin (% of control)": 99.8, "Call": "inactive"}
{"gene knocked down": "RFPL4A", "siRNA no.": 2, "log2 vehicle/camptothecin viability": -0.27, "viability with camptothecin (% of control)": 92.7, "Call": "inactive"}
{"gene knocked down": "RFPL4A", "siRNA no.": 3, "log2 vehicle/camptothecin viability": -0.0359, "viability with camptothecin (% of control)": 75, "Call": "inactive"}
{"gene knocked down": "POLQ", "siRNA no.": 1, "log2 vehicle/camptothecin viability": 0.061, "viability with camptothecin (% of control)": 96.3, "Call": "inactive"}
{"gene knocked down": "POLQ", "siRNA no.": 2, "log2 vehicle/camptothecin viability": -0.357, "viability with camptothecin (% of control)": 71.7, "Call": "inactive"}
{"gene knocked down": "POLQ", "siRNA no.": 3, "log2 vehicle/camptothecin viability": -0.235, "viability with camptothecin (% of control)": 110, "Call": "inactive"}
{"gene knocked down": "POLQ", "siRNA no.": 4, "log2 vehicle/camptothecin viability": -0.165, "viability with camptothecin (% of control)": 138, "Call": "inactive"}
